Experimental data from PubChem BioAssay AID504467 (National Center for Advancing Translational Sciences (NCATS), 2011).
The campaign covered roughly 330,000 compounds. About 7,700 (2.3%) were called active. Inconclusive results, whose numbers are uncertain, are shown with a selection of clear calls. Calls follow the shape of the dose curve; as a rule, active = well fitted inhibition curve with a large enough effect; inconclusive = small, poorly fitted or top-dose-only effect, or effect the other way; inactive = flat fitted curve, though single readings scatter. Potencies of inconclusive entries are doubtful fits and often do not repeat.

Test: qHTS screen for small molecules that inhibit ELG1-dependent DNA repair in human embryonic kidney (HEK293T) cells expressing luciferase-tagged ELG1; also: nearly all actives have a fitted effect of over 55% in size
Conditions: HEK293T ELG1-luciferase reporter, luminescence, 16 h, DNA damage induced by 5-fluorouridine; activity change, negative = inhibition: at 46.1 µM (top of the series)
How it was run: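 Luminescence from the luciferase reporter, measured 30 min after ONE-Glo reagent at room temperature, was the read-out. Beforehand, 2,000 cells per well were exposed for 16 hr at 37 °C to 5-fluorouridine together with compound or vehicle.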
% is scaled to controls: 0 for no effect and ±100 for the full control effect; potency is read from the fitted curve at half-maximal effect.

Row | SMILES | Potency | activity change, negative = inhibition
1 | Cc1ccsc1/C=N/NC(=O)c1ccccn1 | inconclusive: 9.2 µM [activator, partial curve] | –
2 | COc1ccc(Nc2nc(-c3cccc([N+](=O)[O-])c3)nc3ccccc23)cc1 | active: 8.2 µM | –
3 | COC(=O)COc1ccc2cc(-c3ccc(OC)cc3)c(=O)oc2c1 | – | inactive: 0.477%
4 | CCN(CC)S(=O)(=O)c1ccc(C(=O)NCC(=O)NCCCc2ccccc2)cc1 | – | inactive: 1.54%
5 | O=C(Nc1ccc(OC(F)(F)F)cc1)C1CCCN(C(=O)c2ccc(Cl)cc2)C1 (centres undefined) | inconclusive: 25.9 µM [inhibitor, single point] | –
6 | CCCC1(C)Nc2ccccc2-c2nc3ccccc3n21 (centres undefined) | inconclusive: 23.1 µM [activator, partial curve] | –
7 | NS(=O)(=O)c1ccc(NC(=O)COC(=O)COc2ccc(Cl)cc2)cc1 | – | inactive: -1.15%
8 | c1ccc(-c2onc(-c3ccco3)c2-c2ccc3c(c2)OCO3)cc1 | – | inactive: 1.42%
9 | COc1ccc(-n2c(C)nc3c(cnn3-c3ccccc3)c2=O)cc1 | inconclusive: 25.9 µM [inhibitor, partial curve, poor fit] | –
10 | COc1ccc(-c2nnc(SCC3CCCO3)n2C)cc1 (centres undefined) | inconclusive: 18.3 µM [activator, single point] | –
11 | O=C(NCCCN1CCN(c2cccc(Cl)c2)CC1)c1nc(-c2ccncc2)no1 | inconclusive: 23.1 µM [inhibitor, partial curve] | –
12 | N#CC(C#N)=C1C=C2C=C(N3CCCCCC3)CCC2CC1 (centres undefined) | inconclusive: 10.3 µM [inhibitor, partial curve] | –
13 | CCSc1ccccc1C(=O)N1CCN(c2ccc([N+](=O)[O-])cc2)CC1 | inconclusive: 20.6 µM [inhibitor, single point] | –
14 | CNC(=O)C1CCN(S(=O)(=O)c2c(C)noc2/C=C/c2cccc(OC)c2)CC1 | inconclusive: 23.1 µM [inhibitor, single point] | –
15 | CCOC(=O)c1oc2ccc(S(=O)(=O)n3nc(-c4ccc(OC)cc4)cc3N)cc2c1C | inconclusive: 5.8 µM [inhibitor, single point] | –
16 | Cc1cccc(Nc2nc(-c3ccccn3)cs2)n1 | inconclusive: 3.26 µM [activator, partial curve, poor fit] | –
17 | COc1cc(C(=O)Nc2cc3c(cc2N2CCCCC2)n(C)c(=O)n3C)cc(OC)c1OC | inconclusive: 3.66 µM [activator, full curve, poor fit] | –
18 | CCOC(=O)C1CCN(S(=O)(=O)c2cccc(-c3cn4cccc(C)c4n3)c2)CC1 | inconclusive: 23.1 µM [inhibitor, single point] | –
19 | COCCNC(=O)CN1CCC(n2c(C)nc3cc(C(F)(F)F)ccc32)CC1 | – | inactive: 5.91%
20 | COc1ccc(OC)c(CN2CCN(C(=O)c3cccc(S(=O)(=O)Nc4ccc(C)cc4)c3)CC2)c1 | inconclusive: 20.6 µM [inhibitor, single point] | –
21 | COc1cccc(C2c3c(-c4cc(Cl)c(C)cc4O)n[nH]c3C(=O)N2Cc2cccnc2)c1 (centres undefined) | inconclusive: 29.1 µM [inhibitor, single point] | –
22 | O=C(CCCn1cc([N+](=O)[O-])cn1)Nc1cccnc1 | – | inactive: 9.8%

Row | SMILES | Potency | activity change, negative = inhibition
23 | C=CCn1c(SCC(=O)Nc2cccc(S(=O)(=O)N(C)c3ccccc3)c2)nnc1C1CC1 | – | inactive: -9.27%
24 | CC(C)C(C)NC(=O)CSc1ccc(S(=O)(=O)N2CCOCC2)cn1 (centres undefined) | – | inactive: 0.202%
25 | CN1CCC(=NNC(=O)CN(c2cccc(Br)c2)S(C)(=O)=O)CC1 | – | inactive: 12.3%
26 | CCOC(=O)c1cc(NC(=O)c2cccs2)ccc1N1CCOCC1 | inconclusive: 29.1 µM [inhibitor, single point] | –
27 | CN(C)/C=N/c1ncc(-c2ncc(C(F)(F)F)cc2Cl)cn1 | inconclusive: 25.9 µM [activator, single point] | –
28 | CC(=O)Nc1ccc(Nc2ccc3c4c(cc(=O)n3C)-c3ccccc3C(=O)c24)cc1 | inconclusive: 3.66 µM [activator, full curve] | –
29 | CCN(c1ccccc1)S(=O)(=O)c1ccc(Cl)c(NC(=O)CSc2nncs2)c1 | inconclusive: 23.1 µM [inhibitor, single point] | –
30 | CC(C(=O)Nc1ccc2c(c1)OCCO2)N1Cc2ccccc2C1=O (centres undefined) | inconclusive: 18.3 µM [activator, partial curve] | –
31 | CC(NC=C1C(=O)OC(C)(C)OC1=O)C(=O)O (centres undefined) | inconclusive: 6.51 µM [activator, full curve, poor fit] | –
32 | CCc1c(C)nc2ncnn2c1NCCc1ccc(OC)c(OC)c1 | active: 11.6 µM | –
33 | CCCCCCCc1ccc(-c2ccc(O)cc2)nc1 | inconclusive: 29.1 µM [activator, single point] | –
34 | CC1CCN(Cc2nnnn2-c2ccc(Cl)cc2)CC1 | – | inactive: 6.03%
35 | CCN(CC(=O)NC1CCS(=O)(=O)C1)S(=O)(=O)c1ccccc1 (centres undefined) | inconclusive: 20.6 µM [activator, single point] | –
36 | Cc1cc2c(C)cc(=O)[nH]c2cc1NC(=O)CCl | inconclusive: 29.1 µM [inhibitor, single point] | –
37 | Cc1ccc(Cl)cc1NC1=C/C(=N\S(=O)(=O)c2cccs2)c2ccccc2C1=O | active: 5.17 µM | –
38 | O=C(c1ccc(NS(=O)(=O)c2ccccc2)cc1)N1CCOCC1 | – | inactive: 0%
39 | O=c1[nH]c2cc3c(cc2cc1C(c1nnnn1Cc1ccccc1)N1CCCc2ccccc21)OCO3 (centres undefined) | active: 0.651 µM | –
40 | O=C(c1ccccc1)c1ccc(C(=O)N2CCN(c3ccc(O)cc3)CC2)cc1 | inconclusive: 32.6 µM [inhibitor, single point] | –
41 | COc1ccccc1NC(=O)N1CCN(c2ccc3nnc(-c4ccc(F)cc4)n3n2)CC1 | inconclusive: 18.3 µM [inhibitor, partial curve] | –
42 | Cc1nn(CCc2nc(-c3ccco3)cs2)c2[nH]c(=O)cc(C(F)(F)F)c12 | – | inactive: 1.23%
43 | COc1ccc(C(=O)Nc2ccc3ncccc3c2)cc1 | inconclusive: 0.92 µM [activator, partial curve] | –
44 | C[C@H](CO)N1C[C@H](C)[C@@H](CN(C)Cc2ccccc2)Oc2c(NC(=O)Cc3ccccc3)cccc2C1=O | inconclusive: 23.1 µM [inhibitor, single point] | –

Entries of single compounds, looked up by structure. Order of values: Potency | activity change, negative = inhibition
COc1ccc(C(=O)Nc2ccc3ncccc3c2)cc1 is entered as inconclusive: 0.92 µM [activator, partial curve] | –
CCCCCCCc1ccc(-c2ccc(O)cc2)nc1 is entered as inconclusive: 29.1 µM [activator, single point] | –
Cc1cc2c(C)cc(=O)[nH]c2cc1NC(=O)CCl is entered as inconclusive: 29.1 µM [inhibitor, single point] | –
